According to patent US20230332233A1, “USE OF microRNA (miRNA) MARKER IN PREPARATION OF PRODUCT FOR EVALUATING THERAPEUTIC EFFECT OF […] TREATMENT OF SCHIZOPHRENIA (SZ) AND KIT” (SHANGHAI JIAO TONG UNIVERSITY, priority 2020, published 2023):
For at least one compound, name, drawing or mass did not settle the structure.

Tested on: miR-143-3p expression in SH-SY5Y cells
Assay: influence of olanzapine on the expression of miR-143-3p in SH-SY5Y cells by qRT-PCR
Format: cell-based, Human
Conditions: 24 h, compared with the control group (0 µM), FIG. 5

## Cc1cc2c(s1)Nc1ccccc1N=C2N1CCN(C)CC1 [olanzapine, Olanzapine]
Olanzapine 1 µM
  expression level of miR-143-3p (2^-ΔCt, U6 internal reference): significantly increased
Olanzapine 10 µM, increase grew with dose
  expression level of miR-143-3p (2^-ΔCt, U6 internal reference): significantly increased
